# Reference: PubChem BioAssay AID1671190 (National Center for Advancing Translational Sciences (NCATS), 2021)
# Sequences of proteins named here, by UniProt entry; tags and fusion partners are left off.
# UniProt P18054, whole entry, looked up: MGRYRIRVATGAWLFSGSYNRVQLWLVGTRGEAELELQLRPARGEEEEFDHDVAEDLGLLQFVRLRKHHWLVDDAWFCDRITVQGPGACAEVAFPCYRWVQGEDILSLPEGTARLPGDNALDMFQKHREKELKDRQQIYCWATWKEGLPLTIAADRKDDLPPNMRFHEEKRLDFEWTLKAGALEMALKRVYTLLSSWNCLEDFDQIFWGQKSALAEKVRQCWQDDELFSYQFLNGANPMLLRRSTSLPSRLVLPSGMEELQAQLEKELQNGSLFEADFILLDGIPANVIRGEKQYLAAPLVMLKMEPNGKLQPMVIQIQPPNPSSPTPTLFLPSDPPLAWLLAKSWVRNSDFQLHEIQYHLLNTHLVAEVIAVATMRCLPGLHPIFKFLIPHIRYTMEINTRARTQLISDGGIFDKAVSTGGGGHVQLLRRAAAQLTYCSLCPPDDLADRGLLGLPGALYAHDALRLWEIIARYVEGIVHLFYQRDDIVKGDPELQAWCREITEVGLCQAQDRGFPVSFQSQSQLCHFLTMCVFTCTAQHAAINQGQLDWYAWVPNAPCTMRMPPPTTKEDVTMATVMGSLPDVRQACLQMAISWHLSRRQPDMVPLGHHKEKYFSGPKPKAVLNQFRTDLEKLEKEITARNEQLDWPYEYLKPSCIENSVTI
# The campaign covered roughly 580,000 compounds. About 6,100 (1.1%) were called active. The inconclusive results got no clear call from the source; some entries with a clear call stand among them for comparison. The call rests on the fitted dose curve; in most records, active means well fitted inhibition curve with a large enough effect; inconclusive means small, poorly fitted or top-dose-only effect, or another doubt; inactive means no such curve, though single readings can be large or run the other way. Potencies of inconclusive entries are doubtful fits and often do not repeat.
# Molecular target: Polyunsaturated fatty acid lipoxygenase ALOX12 (Homo sapiens) (UniProt P18054)
# Experiment: Primary qHTS assay for inhibitors of human arachidonate 12S-lipoxygenase (ALOX12): Round 2
# Settings: purified 12hLO, xylenol orange hydroperoxide absorbance; activity change, negative = inhibition: at 108 µM (top of the series) unless noted
# In short: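 Purified human 12hLO at 150 nM in 25 mM Hepes, 0.01% Triton X-100, pH 7.0, preincubated 15 min at room temperature with compound. Reaction started with 40 uM arachidonic acid, 30 min at room temperature. Hydroperoxide measured by Fe-xylenol orange, 573/405 nm absorbance ratio.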
# On the % scale 0 is the no-effect control and ±100 the full control effect; potency means the concentration at half of the fitted maximal effect.
SMILES,"activity change, negative = inhibition",Potency
O=C(COc1ccc(Br)cc1Cl)NC(=S)N1CCc2ccccc21,inactive: -18.4%,–
Cc1ccc(C(=O)ONc2ccc(N=NC(=O)c3ccccc3O)cc2)cc1,–,"inconclusive: 20 µM [inhibitor, partial curve, poor fit]"
Cc1cc(C(=O)CSc2nnc(COc3ccccc3Cl)n2C)c(C)n1CC(F)(F)F,–,"inconclusive: 50.1 µM [inhibitor, single point]"
Brc1ccc(/C=N/Nc2ccccc2)cc1,–,active: 44.7 µM
Cn1c(N)c(C(=O)CSc2nnc(-c3c[nH]c4ccccc34)n2C2CC2)c(=O)[nH]c1=O,inactive: 14.1%,–
Clc1cc(Cl)cc(OCc2cc(-c3ccco3)on2)c1,inactive: 6.17%,–
NC(=O)c1ccc[n+](Cc2ccccc2)c1,–,"inconclusive: 28.2 µM [inhibitor, partial curve, poor fit]"
COc1ccccc1N1CCN(C(=O)CCNS(=O)(=O)c2ccc(Br)s2)CC1,–,"inconclusive: 14.1 µM [inhibitor, partial curve, poor fit]"
O=C(CSc1nc(-c2ccc(F)cc2)nc2ccc(F)cc12)Nc1cccc(C(=O)O)c1,–,"inconclusive: 112 µM [inhibitor, single point]"
O=C(O)C1OC1(c1ccccc1Cl)c1ccccc1Cl (configuration not stated),–,"inconclusive: 44.7 µM [inhibitor, partial curve, poor fit]"
Cc1nn(-c2ccc(F)cc2)c(Cl)c1/C=C1\C(=O)Nc2ccccc21,inactive: -14.6%,–
Cc1ccc(CNC(=O)c2ccc3c(c2)N(C)C2CCCCCN2C3=O)cc1C (configuration not stated),–,"inconclusive: 28.2 µM [inhibitor, partial curve, poor fit]"
O=C1c2c(nc(CNCc3ccc4c(c3)OCO4)n2Cc2ccccc2)NCCN1Cc1ccccc1,inactive: 34.6%,–
Cc1ccc(Nc2c(-c3ccc(C)o3)nc3cccc(C)n23)cc1,–,active: 44.7 µM
Cc1[nH]n(-c2ccc(Br)cc2)c(=O)c1C=Nc1ccc(S(=O)(=O)Nc2nccs2)cc1,inactive: 1.03%,–
COCCN1CCN(C(=O)c2cnn(-c3nccc(-c4ccccc4OC)n3)c2-c2ccco2)CC1,–,"inconclusive: 100 µM [inhibitor, single point]"
O=C(NCCC1=CCCCC1)c1cnc2n(c1=O)CCS2,–,"inconclusive: 28.2 µM [inhibitor, partial curve, poor fit]"
NC(=S)N/N=C/c1cccc(O)c1O,–,"inconclusive: 8.91 µM [inhibitor, full curve]"
Cc1ccc(NC(=O)CN(C)C2CCCCC2)cc1Cl,–,"inconclusive: 0.631 µM [inhibitor, full curve, poor fit]"
COc1cc(CN2CCCC(C(=O)N3CCc4ccccc4C3)C2)cc(OC)c1OC (configuration not stated),–,"inconclusive: 2.82 µM [inhibitor, full curve, poor fit]"
Cc1oc2c(c1C(=O)NCc1ccncc1)CN(Cc1cccc(F)c1)CC2,inactive: -4.51%,–
COc1ccccc1C(=O)Nc1ccc2oc(-c3cccc(F)c3)nc2c1,–,"inconclusive: 70.8 µM [inhibitor, partial curve, poor fit]"
COc1cccc(-c2cc(C(=O)O)[nH]n2)c1,–,"inconclusive: 15.8 µM [inhibitor, full curve, poor fit]"
COc1ccc2nc(SCC(=O)Nc3ccccc3OC)[nH]c2c1,inactive: 0%,–

# Among those listed so far, three contain a COOH group:
SMILES,"activity change, negative = inhibition",Potency
O=C(CSc1nc(-c2ccc(F)cc2)nc2ccc(F)cc12)Nc1cccc(C(=O)O)c1,–,"inconclusive: 112 µM [inhibitor, single point]"
O=C(O)C1OC1(c1ccccc1Cl)c1ccccc1Cl (configuration not stated),–,"inconclusive: 44.7 µM [inhibitor, partial curve, poor fit]"
COc1cccc(-c2cc(C(=O)O)[nH]n2)c1,–,"inconclusive: 15.8 µM [inhibitor, full curve, poor fit]"

# Later entries.

SMILES,"activity change, negative = inhibition",Potency
CCc1cccc(OCCN2CCCC2)c1,–,"inconclusive: 1.58 µM [inhibitor, full curve]"
Cc1ccc2nc(C3CCCN(Cc4cccs4)C3)[nH]c(=O)c2c1 (configuration not stated),–,"inconclusive: 31.6 µM [inhibitor, partial curve]"
COc1ccccc1C(=O)NC1CCCc2c1[nH]c1ccccc21 (configuration not stated),–,"inconclusive: 44.7 µM [inhibitor, partial curve, poor fit]"
Cc1ccc(C)c(C(=O)NC(C)CCc2ccccc2)c1 (configuration not stated),–,"inconclusive: 89.1 µM [inhibitor, single point]"
Cc1ccc(C)n1-c1nc(=S)[nH][nH]1,–,active: 4.47 µM
COC(=O)C1=C(C)N(c2cccc(OC)c2)C(=O)/C1=C\c1ccco1,–,"inconclusive: 11.2 µM [inhibitor, full curve, poor fit]"
CSCc1noc(CNC(=O)c2ccc(-c3ccccc3Cl)o2)n1,–,"inconclusive: 31.6 µM [inhibitor, partial curve, poor fit]"
COCc1cccc(C(=O)NCCC(c2ccccc2)c2ccccc2)c1,–,"inconclusive: 44.7 µM [inhibitor, single point]"
O=C(Nc1cc(S(=O)(=O)N2CCOCC2)ccc1O)c1ccco1,–,"inconclusive: 11.2 µM [inhibitor, partial curve, poor fit]"
OC(c1cc(-c2cccc(Cl)c2)nc2ccccc12)C1CCCCN1 (configuration not stated),–,active: 35.5 µM
CCOC(=O)N1CCN(CC(=O)Nc2ccc(Oc3ccccc3)cc2)CC1,inactive: -21.9%,–
COCc1ccc(CNC(=O)/C=C/c2ccccc2)cc1,–,"inconclusive: 79.4 µM [inhibitor, single point]"
Cc1ccc(C(=O)C2=C(O)C(=O)N(c3ncccn3)C2c2ccc(Cl)cc2)o1 (configuration not stated),–,"inconclusive: 2.24 µM [inhibitor, full curve, poor fit]"
Cc1c(C)n(O)c2ccc3nonc3c12,–,"inconclusive: 100 µM [inhibitor, partial curve, poor fit]"
CC(C)C(=O)Nc1ccc2[nH]cc(C(C(=O)O)N3CCN(CC(=O)N(C)C)CC3)c2c1 (configuration not stated),–,"inconclusive: 79.4 µM [inhibitor, single point]"
CCCCCCN1CCN(C2CN(Cc3cn(Cc4ccc(F)cc4)nn3)S(=O)(=O)C2)CC1 (configuration not stated),inactive: -57.1%,–
Cc1ccc(C2=NN(C(=O)c3ccco3)C(O)(C(F)(F)F)C2)cc1 (configuration not stated),–,"inconclusive: 70.8 µM [inhibitor, partial curve, poor fit]"
Cc1cc(=O)[nH]c(SCC(=O)c2ccc(O)c(O)c2)n1,–,active: 4.47 µM
Cc1cccc(-n2cc[nH]c2=S)c1C,–,active: 50.1 µM
C=CCc1ccc(OCC(O)CN2CCN(Cc3ccc(Cl)cc3)CC2)c(OC)c1 (configuration not stated),–,"inconclusive: 39.8 µM [inhibitor, partial curve]"
Nc1nccnc1C(=O)Nc1ccc2ccccc2n1,–,active: 10 µM
CC(C)(C)c1n[nH]c2c1CCCC2,inactive: 8.33%,–
CN1CCN(S(=O)(=O)c2cccc(C(=O)Nc3ccccc3N3CCCCC3)c2)CC1,inactive: 6.45%,–
COc1ccc2nc(NC(=O)C3CCCN(S(=O)(=O)c4cccc5nsnc45)C3)sc2c1 (configuration not stated),inactive: 24.3%,–

SMILES,"activity change, negative = inhibition",Potency
CN(C)/C=C/C(=O)c1ccc[nH]1,–,"inconclusive: 79.4 µM [inhibitor, partial curve, poor fit]"
COc1cccc(C=Cc2nccc3ccccc23)c1OC,–,"inconclusive: 39.8 µM [inhibitor, partial curve, poor fit]"
O=C(CN1C(=O)C2CCCCC2C1=O)Nc1ccccc1C(=O)O (configuration not stated),–,"inconclusive: 50.1 µM [inhibitor, partial curve, poor fit]"
CCNC(=O)NC(=O)CN(C)C(C)C(C)(C)C (configuration not stated),inactive: -27.7%,–
O=C(COC(=O)c1ccc2ccccc2n1)Nc1ccc(F)cc1,–,"inconclusive: 6.31 µM [inhibitor, full curve, poor fit]"
Cc1ccc(NC(=O)c2cnc(NCc3ccc4c(c3)OCO4)nc2C)c(C)c1,inactive: 30.1%,–
CCNS(=O)(=O)c1cc(C(=O)NC)ccc1OC,inactive: 17.5%,–
Cc1cc2ccccc2n1CC(=O)NC1CCCCC1,–,"inconclusive: 50.1 µM [inhibitor, single point]"
CC(=O)N1CCN(S(=O)(=O)c2cccc(C(=O)NCCc3ccc(Cl)cc3)c2)CC1,–,"inconclusive: 39.8 µM [inhibitor, partial curve]"
Cc1nn(-c2cccc(C(F)(F)F)c2)c(=O)c2ccccc12,–,"inconclusive: 20 µM [inhibitor, single point]"
CCCn1nnc(NCc2c(F)cccc2Cl)n1,inactive: 4.09%,–
CCc1nc2ccc(C(=O)N(C)CCN(C)C)cn2c1N(C)Cc1cc2ccccc2s1,inactive: 8.99%,–
COc1cc(NC(=O)c2cc3c(N4CCCC4)nc(C)cn3n2)cc(OC)c1OC,inactive: 50.6%,–
COc1ccccc1Nc1nc(NCCC(C)C)nc(N)c1[N+](=O)[O-],–,"inconclusive: 100 µM [inhibitor, single point]"
CN(C)S(=O)(=O)c1cccc(C(=O)Nc2cccc(Oc3ccccc3)c2)c1,–,"inconclusive: 39.8 µM [inhibitor, single point]"
COc1ccc(Nc2nc(-c3ccc(C)c(C)c3)cs2)cc1,–,"inconclusive: 8.91 µM [inhibitor, full curve, poor fit]"
O=C(Sc1n[nH]c(=O)[nH]c1=O)c1ccccc1,–,"inconclusive: 3.55 µM [inhibitor, full curve]"
Cn1nc(C(=O)Oc2cc(Cl)ccc2Cl)c2ccccc2c1=O,–,"inconclusive: 50.1 µM [inhibitor, partial curve, poor fit]"
O=C1CN(CC(=O)Nc2cccc3ncccc23)CCN1,inactive: 15.8%,–
CN(Cc1ccc(-c2ccccc2)cc1)C(=O)c1ccccc1,–,"inconclusive: 70.8 µM [inhibitor, partial curve]"
O=C1CC(Nc2ccc(N3CCOCC3)cc2)C(=O)N1c1ccccc1F (configuration not stated),–,active: 15.8 µM
CCCNC(=O)CN1CCN(c2ccc(NC(=O)c3ccc(OC)cc3)cc2C(=O)O)CC1,–,"inconclusive: 63.1 µM [inhibitor, partial curve, poor fit]"
Cn1c(=O)cc(Nc2ccccc2)c2c(=O)n(-c3ccccc3)c(=O)n(-c3ccccc3)c21,–,"inconclusive: 100 µM [inhibitor, single point]"
CCNc1nc2ccccc2nc1C(C#N)S(=O)(=O)c1ccc(C)c(C)c1 (configuration not stated),–,active: 14.1 µM
